PMC7939390 (The Journal of Biological Chemistry, 2020)
No constants are given. Whether binding was seen depends on the method and setting. Some binding calls cover weakened binding; strength is not graded here. For part of these data: Tags and fused reporters may be left off the sequences shown.

By UniProt entry, the sequences of proteins in these tests, tags left out. Where a name states a change or a piece, a line headed by the entry shows the natural chain unless it says otherwise.
UniProt P0A6S5: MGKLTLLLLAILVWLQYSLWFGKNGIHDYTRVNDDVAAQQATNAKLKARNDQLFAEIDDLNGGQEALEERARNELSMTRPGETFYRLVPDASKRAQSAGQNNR
UniProt P0AEN4: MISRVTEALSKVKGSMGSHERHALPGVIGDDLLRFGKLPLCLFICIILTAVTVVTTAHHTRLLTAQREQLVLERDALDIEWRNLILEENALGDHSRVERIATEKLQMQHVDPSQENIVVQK
UniProt P06136: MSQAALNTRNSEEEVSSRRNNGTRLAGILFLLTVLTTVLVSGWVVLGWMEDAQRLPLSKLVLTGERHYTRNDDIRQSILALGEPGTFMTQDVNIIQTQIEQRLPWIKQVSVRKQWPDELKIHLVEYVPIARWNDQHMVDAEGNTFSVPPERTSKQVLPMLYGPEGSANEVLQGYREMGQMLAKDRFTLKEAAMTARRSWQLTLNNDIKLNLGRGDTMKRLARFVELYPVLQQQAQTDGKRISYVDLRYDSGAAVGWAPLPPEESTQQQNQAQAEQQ

What was measured:
[1] = target: T1, HisFtsN (full-length FtsN) (E. coli) (UniProt P29131); assay: co-expression and co-purification; HisFtsN or HisFtsN130 co-expressed with PBP1b, co-purified, SDS-PAGE
T1 sequence: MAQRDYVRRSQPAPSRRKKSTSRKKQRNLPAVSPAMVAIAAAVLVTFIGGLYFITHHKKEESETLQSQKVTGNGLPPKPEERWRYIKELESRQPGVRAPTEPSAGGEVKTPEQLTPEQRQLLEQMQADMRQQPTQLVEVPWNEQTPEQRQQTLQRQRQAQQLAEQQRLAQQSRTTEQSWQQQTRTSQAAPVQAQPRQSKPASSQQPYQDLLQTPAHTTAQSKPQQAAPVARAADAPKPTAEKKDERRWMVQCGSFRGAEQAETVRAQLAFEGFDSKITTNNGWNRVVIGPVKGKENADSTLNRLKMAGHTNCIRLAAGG

[2] = target: T2, HisFtsN130 (FtsN Met1–Arg130) (E. coli) (UniProt P29131); assay: as above
T2 sequence: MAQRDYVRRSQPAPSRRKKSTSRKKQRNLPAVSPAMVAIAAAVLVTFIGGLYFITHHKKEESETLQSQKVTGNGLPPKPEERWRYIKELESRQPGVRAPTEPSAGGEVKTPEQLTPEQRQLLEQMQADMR

[3] = target: T3, PBP3 (E. coli) (UniProt P0AD68); assay: fluorescence polarisation; fluorescence anisotropy; FITC-Lys69–Gln93 probe at 100 nM, serial dilutions of the proteins in their specific buffer, 384-well plates, 30 min at 25 °C; both purified
T3 sequence: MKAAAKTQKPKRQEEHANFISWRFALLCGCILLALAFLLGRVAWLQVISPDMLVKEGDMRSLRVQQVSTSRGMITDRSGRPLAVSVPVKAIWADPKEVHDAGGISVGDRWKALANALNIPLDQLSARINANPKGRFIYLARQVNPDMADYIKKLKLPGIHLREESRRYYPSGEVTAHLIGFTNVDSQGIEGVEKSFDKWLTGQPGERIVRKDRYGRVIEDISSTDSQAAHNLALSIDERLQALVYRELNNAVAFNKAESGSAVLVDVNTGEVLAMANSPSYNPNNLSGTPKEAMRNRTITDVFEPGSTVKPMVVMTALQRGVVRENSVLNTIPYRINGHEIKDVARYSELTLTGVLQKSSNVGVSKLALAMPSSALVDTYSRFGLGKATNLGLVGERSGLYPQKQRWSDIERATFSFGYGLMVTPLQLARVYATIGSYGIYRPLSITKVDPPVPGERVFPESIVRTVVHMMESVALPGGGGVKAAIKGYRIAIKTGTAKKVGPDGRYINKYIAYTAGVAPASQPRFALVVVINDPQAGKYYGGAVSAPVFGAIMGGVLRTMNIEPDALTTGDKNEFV

[4] = target: FtsBLQ complex (E. coli) (UniProt P0A6S5+P0AEN4+P06136); assay: as above
[5] = target: T4, FtsW–PBP3 complex (E. coli) (UniProt P0ABG4+P0AD68); assay: as above
T4 sequence 1: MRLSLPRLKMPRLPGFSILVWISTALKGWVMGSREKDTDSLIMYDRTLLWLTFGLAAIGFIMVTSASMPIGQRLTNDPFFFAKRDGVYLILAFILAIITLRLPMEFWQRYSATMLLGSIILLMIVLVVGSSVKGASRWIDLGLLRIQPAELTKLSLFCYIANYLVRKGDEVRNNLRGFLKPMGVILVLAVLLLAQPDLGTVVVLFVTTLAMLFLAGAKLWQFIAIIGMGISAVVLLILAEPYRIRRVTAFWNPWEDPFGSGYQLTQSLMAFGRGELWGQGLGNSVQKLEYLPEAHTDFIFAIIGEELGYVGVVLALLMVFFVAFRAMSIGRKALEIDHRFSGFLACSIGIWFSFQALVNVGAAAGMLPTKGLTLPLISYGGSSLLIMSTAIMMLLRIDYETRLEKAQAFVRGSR
T4 sequence 2: T3 sequence

[6] = target: T5, PBP1a (E. coli) (UniProt P02918); assay: as above
T5 sequence: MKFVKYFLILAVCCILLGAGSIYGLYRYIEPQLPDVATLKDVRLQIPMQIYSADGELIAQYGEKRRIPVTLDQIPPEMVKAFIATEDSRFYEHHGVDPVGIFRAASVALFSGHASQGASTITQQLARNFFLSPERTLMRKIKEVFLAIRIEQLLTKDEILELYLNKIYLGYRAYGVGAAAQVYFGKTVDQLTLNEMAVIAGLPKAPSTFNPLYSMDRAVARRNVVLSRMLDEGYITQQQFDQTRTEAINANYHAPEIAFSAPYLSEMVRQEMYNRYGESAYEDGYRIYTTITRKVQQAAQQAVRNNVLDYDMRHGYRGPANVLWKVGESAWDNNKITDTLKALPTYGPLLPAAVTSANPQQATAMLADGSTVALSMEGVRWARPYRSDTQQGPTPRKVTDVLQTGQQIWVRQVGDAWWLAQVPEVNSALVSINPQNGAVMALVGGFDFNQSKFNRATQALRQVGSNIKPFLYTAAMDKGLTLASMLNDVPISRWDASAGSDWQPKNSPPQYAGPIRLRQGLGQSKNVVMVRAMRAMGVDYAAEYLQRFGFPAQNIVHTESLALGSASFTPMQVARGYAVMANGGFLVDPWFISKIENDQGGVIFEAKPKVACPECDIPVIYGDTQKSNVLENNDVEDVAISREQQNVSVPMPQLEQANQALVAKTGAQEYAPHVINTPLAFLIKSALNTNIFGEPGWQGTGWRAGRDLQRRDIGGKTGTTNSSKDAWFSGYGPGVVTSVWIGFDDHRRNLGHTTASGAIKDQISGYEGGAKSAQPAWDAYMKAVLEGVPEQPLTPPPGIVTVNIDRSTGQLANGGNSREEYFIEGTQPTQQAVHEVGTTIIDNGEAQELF

B1: PBP1b co-expressed with HisFtsN or HisFtsN130 (enzyme, UniProt P02919 1-844)
chain: MAGNDREPIGRKGKPTRPVKQKVSRRRYEDDDDYDDYDDYEDEEPMPRKGKGKGKGRKPRGKRGWLWLLLKLAIVFAVLIAIYGVYLDQKIRSRIDGKVWQLPAAVYGRMVNLEPDMTISKNEMVKLLEATQYRQVSKMTRPGEFTVQANSIEMIRRPFDFPDSKEGQVRARLTFDGDHLATIVNMENNRQFGFFRLDPRLITMISSPNGEQRLFVPRSGFPDLLVDTLLATEDRHFYEHDGISLYSIGRAVLANLTAGRTVQGASTLTQQLVKNLFLSSERSYWRKANEAYMALIMDARYSKDRILELYMNEVYLGQSGDNEIRGFPLASLYYFGRPVEELSLDQQALLVGMVKGASIYNPWRNPKLALERRNLVLRLLQQQQIIDQELYDMLSARPLGVQPRGGVISPQPAFMQLVRQELQAKLGDKVKDLSGVKIFTTFDSVAQDAAEKAAVEGIPALKKQRKLSDLETAIVVVDRFSGEVRAMVGGSEPQFAGYNRAMQARRSIGSLAKPATYLTALSQPKIYRLNTWIADAPIALRQPNGQVWSPQNDDRRYSESGRVMLVDALTRSMNVPTVNLGMALGLPAVTETWIKLGVPKDQLHPVPAMLLGALNLTPIEVAQAFQTIASGGNRAPLSALRSVIAEDGKVLYQSFPQAERAVPAQAAYLTLWTMQQVVQRGTGRQLGAKYPNLHLAGKTGTTNNNVDTWFAGIDGSTVTITWVGRDNNQPTKLYGASGAMSIYQRYLANQTPTPLNLVPPEDIADMGVDYDGNFVCSGGMRILPVWTSDPQSLCQQSEMQQQPSGNPFDQSSQPQQQPQQQPAQQEQKDSDGVAGWIKDMFGSN
binding [1]: binds | binding [2]: binds

B2: FITC-labeled peptide (FITC-Lys69–Gln93) of FtsN (peptide)
peptide: KVTGNGLPPKPEERWRYIKELESRQ
modifications: FITC fluorophore attached at the N terminus
binding [3]: no binding | binding [4]: no binding | binding [5]: no binding | binding [6]: no binding
